Laboratory results taken from article PMC2920863.
Results are given in words; binding and its absence hold for the method and conditions named. In cells and extracts the contact can be indirect.

Molecular target: T1, DERL1 (bovine (endogenous in corpus luteum)) (UniProt Q71SS4)
T1 sequence: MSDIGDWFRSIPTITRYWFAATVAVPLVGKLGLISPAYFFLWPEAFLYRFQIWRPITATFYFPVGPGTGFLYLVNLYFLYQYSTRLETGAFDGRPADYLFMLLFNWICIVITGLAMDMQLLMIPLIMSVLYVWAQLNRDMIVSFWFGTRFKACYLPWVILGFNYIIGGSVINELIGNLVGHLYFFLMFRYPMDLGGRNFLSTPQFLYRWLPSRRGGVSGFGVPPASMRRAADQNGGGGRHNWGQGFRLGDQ
Test: co-IP; bovine luteal tissue lysate (100 ug; days 5, 11, 18 of the estrous cycle), precleared, immunoprecipitated with anti-DERL1 antibody and protein A Sepharose CL-4B at 4°C, washed 3 times in lysis buffer with 1% Nonidet-P40; precipitates and supernatants blotted for class I MHC, VIMP and p97

## VCP-interacting membrane protein (VIMP) (bovine (endogenous in corpus luteum))
  binding: no binding
